The record followed here is paper PMC3843068.

The chains behind the UniProt entries cited, without tags or fusion partners. Where a name states a change or a piece, a line headed by the entry shows the natural chain unless it says otherwise.
UniProt Q8TAF3: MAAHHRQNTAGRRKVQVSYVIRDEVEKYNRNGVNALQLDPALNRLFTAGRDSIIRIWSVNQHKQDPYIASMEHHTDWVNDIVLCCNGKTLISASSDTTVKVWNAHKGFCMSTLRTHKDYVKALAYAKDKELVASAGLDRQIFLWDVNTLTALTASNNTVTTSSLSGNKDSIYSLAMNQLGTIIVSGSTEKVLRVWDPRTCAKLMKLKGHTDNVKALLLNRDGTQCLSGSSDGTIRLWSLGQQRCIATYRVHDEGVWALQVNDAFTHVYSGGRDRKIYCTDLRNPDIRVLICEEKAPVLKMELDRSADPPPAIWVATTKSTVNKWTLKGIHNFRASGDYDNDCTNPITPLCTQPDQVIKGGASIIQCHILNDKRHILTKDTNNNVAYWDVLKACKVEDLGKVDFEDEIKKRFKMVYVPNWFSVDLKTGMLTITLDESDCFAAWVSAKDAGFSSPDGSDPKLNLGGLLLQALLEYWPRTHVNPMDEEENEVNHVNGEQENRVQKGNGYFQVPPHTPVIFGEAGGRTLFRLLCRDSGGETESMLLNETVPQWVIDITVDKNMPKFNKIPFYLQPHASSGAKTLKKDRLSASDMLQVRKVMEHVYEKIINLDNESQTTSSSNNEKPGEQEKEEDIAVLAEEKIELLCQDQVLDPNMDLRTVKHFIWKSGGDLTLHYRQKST
UniProt O75317: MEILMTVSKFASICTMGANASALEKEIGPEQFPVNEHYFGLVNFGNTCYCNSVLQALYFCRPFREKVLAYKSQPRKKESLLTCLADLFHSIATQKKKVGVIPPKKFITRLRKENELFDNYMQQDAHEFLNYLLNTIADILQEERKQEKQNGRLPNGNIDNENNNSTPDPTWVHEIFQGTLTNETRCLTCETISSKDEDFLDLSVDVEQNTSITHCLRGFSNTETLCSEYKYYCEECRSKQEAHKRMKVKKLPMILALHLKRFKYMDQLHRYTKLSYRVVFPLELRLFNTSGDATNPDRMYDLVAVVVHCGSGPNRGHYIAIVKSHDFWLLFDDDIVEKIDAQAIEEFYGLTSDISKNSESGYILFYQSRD

No constants are given. Whether binding was seen depends on the method and setting. In cells and extracts the contact can be indirect. Some results given as binding are weak or reduced against the parent protein; the word gives no strength. For some assays here: Sequences can lack the tags named with a protein.

Experiment [1] addresses endogenous PHLPP1 (human (endogenous in 293T)) (UniProt O60346). The experiment is described as follows: co-IP; endogenous proteins; IP with PHLPP1 antibody or control IgG, blots with WDR48 and USP12 antibodies; NETN lysis, 1 h at 4 °C; cell line not stated.
Experiment [2] concerns the target T1, GST-PHLPP1 fusion protein (UniProt O60346).
T1 sequence: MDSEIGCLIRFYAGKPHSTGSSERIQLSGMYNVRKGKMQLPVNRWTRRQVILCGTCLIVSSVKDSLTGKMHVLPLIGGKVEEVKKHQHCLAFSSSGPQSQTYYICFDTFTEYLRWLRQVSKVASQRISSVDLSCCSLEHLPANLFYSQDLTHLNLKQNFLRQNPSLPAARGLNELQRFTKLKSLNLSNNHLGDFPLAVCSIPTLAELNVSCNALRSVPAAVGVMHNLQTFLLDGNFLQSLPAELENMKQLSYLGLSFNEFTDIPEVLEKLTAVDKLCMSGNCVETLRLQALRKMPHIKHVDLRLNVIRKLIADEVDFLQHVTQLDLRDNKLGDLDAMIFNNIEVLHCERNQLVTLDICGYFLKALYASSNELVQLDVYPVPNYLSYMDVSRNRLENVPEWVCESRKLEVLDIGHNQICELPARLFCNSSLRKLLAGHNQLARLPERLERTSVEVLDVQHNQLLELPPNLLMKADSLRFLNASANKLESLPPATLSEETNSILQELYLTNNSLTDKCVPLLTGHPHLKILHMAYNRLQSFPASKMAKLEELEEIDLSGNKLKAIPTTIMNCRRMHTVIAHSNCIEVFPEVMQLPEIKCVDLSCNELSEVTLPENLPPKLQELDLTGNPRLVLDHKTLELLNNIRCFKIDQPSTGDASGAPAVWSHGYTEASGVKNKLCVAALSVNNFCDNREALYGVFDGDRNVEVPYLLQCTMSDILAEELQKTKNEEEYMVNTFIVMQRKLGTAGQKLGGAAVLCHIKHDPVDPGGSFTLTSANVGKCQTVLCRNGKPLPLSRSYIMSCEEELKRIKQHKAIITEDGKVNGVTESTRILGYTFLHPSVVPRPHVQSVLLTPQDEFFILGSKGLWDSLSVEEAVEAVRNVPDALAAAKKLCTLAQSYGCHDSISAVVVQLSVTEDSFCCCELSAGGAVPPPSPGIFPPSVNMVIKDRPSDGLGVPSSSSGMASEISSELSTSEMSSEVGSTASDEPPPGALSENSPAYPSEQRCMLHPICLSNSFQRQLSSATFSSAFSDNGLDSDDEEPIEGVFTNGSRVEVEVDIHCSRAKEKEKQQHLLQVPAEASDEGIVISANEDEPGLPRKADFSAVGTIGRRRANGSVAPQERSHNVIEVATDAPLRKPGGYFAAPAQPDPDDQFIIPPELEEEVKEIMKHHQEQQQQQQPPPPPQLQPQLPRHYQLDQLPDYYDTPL
Briefly: pull-down; bacterially expressed GST-PHLPP1 or control GST on glutathione-Sepharose beads, incubated with lysate of 293T cells expressing SFB-WDR48, 1 h at 4 °C; blot with anti-FLAG antibody; only the target purified.

The target of experiment [3] is SFB-tagged WDR48 L580F mutant (UniProt Q8TAF3). Briefly: co-IP; 293T co-transfected with SFB-WDR48 (WT or L580F) and HA-PHLPP1 or Myc-USP12; precipitation with streptavidin beads, blot with anti-HA or anti-myc antibody.
Experiment [4] has as its target SFB-tagged WDR48 full-length (UniProt Q8TAF3). Described as above.
Experiment [5] has the same target. The experiment is described as follows: co-IP; 293T transfected with FLAG-tagged plasmids; IP with FLAG antibody, blot of endogenous PHLPP1 with PHLPP1 antibody; NETN buffer.
For experiment [6], the target named is FLAG-tagged USP12 (SFB-triple-tagged, full-length) (UniProt O75317). Described as above.
Experiment [7] addresses T2, SFB-triple-tagged PHLPP1 full-length (UniProt O60346).
T2 sequence: T1 sequence
Briefly: co-IP; 293T co-transfected with SFB-tagged PHLPP1 constructs and Myc-tagged WDR48; immunoprecipitation and immunoblotting with the indicated antibodies.

The target of experiment [8] is SFB-tagged WDR48 full-length (UniProt Q8TAF3). The experiment is described as follows: co-IP; 293T co-transfected with HA-PHLPP1 and FLAG(SFB)-tagged proteins; IP with anti-FLAG antibody, blot with HA antibody (Fig. 1D; Fig. 2D with the indicated antibodies); NETN buffer.
In experiment [9] the target is FLAG-tagged USP12 (SFB-triple-tagged, full-length) (UniProt O75317). The experiment is described as above.

Consider “endogenous WDR48 (from UniProt Q8TAF3 1-677)”, for which, in [1], the binding result is on record as “binds”.

With “SFB-tagged WDR48 full-length (from UniProt Q8TAF3 1-677)”, the binding result in experiment [2] is “binds”.

Regarding “endogenous USP12 (from UniProt O75317 1-370) (enzyme)”, the binding entry in experiment [1] is on record as “binds”.

“Myc-tagged USP12 full-length (from UniProt O75317 1-370) (enzyme)”: the binding entry in [3] and in [4] was “binds” in each case.

“endogenous PHLPP1 (from UniProt O60346 1-1717)”: the binding entry in experiment [5] and in [6] was “binds” each time.

Turning to “Myc-tagged WDR48 full-length (from UniProt Q8TAF3 1-677)”, the binding entry in experiment [7] was “binds”.

B1: HA-tagged PHLPP1 (protein, UniProt O60346-2 1-1205)
chain: T1 sequence
Turning to B1, the binding result in [4], in [8] and in experiment [9] was “binds” in each case.
